# The supplement of paper PMC4604168 (melanoma cell lines)
# The list shows a part of the results. Many values rest on one well or one pass, so single values are uncertain.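 The apoptosis fraction was the count of cleaved-PARP antibody-stained nuclei relative to all DNA-stained nuclei, imaged in 1,536-well plates. Screening doses were set so most cells survived, and baseline and induced cleaved-PARP levels vary greatly across cell lines.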
# Columns and labels:
# Assay in all cases: cleaved PARP positive nuclei fraction relative to DMSO control; melanoma cells; higher = more apoptosis
# Settings in all cases: library dose: low library concentration; 72 h
# 501Mel = system: 501Mel
# A101D = system: A101D
# A2058 = system: A2058
# C32 = system: C32
# CBRC008 = system: CBRC008 (line from a melanoma biopsy)
# CBRC014 = system: CBRC014 (line from a melanoma biopsy)
# CBRC016 = system: CBRC016 (line from a melanoma biopsy)
# CBRC017 = system: CBRC017 (line from a melanoma biopsy)
# COLO792 = system: COLO792
# COLO800 = system: COLO800
# COLO829 = system: COLO829
# G361 = system: G361
# IPC-298 = system: IPC-298
# IST-MEL1 = system: IST-MEL1
# LB2518-MEL = system: LB2518-MEL
# LOXIMVI = system: LOXIMVI
Compound,cleaved PARP positive nuclei fraction (501Mel) [%],cleaved PARP positive nuclei fraction (A101D) [%],cleaved PARP positive nuclei fraction (A2058) [%],cleaved PARP positive nuclei fraction (C32) [%],cleaved PARP positive nuclei fraction (CBRC008) [%],cleaved PARP positive nuclei fraction (CBRC014) [%],cleaved PARP positive nuclei fraction (CBRC016) [%],cleaved PARP positive nuclei fraction (CBRC017) [%],cleaved PARP positive nuclei fraction (COLO792) [%],cleaved PARP positive nuclei fraction (COLO800) [%],cleaved PARP positive nuclei fraction (COLO829) [%],cleaved PARP positive nuclei fraction (G361) [%],cleaved PARP positive nuclei fraction (IPC-298) [%],cleaved PARP positive nuclei fraction (IST-MEL1) [%],cleaved PARP positive nuclei fraction (LB2518-MEL) [%],cleaved PARP positive nuclei fraction (LOXIMVI) [%]
"CCCCCCCCCCCCCCCCCCOP(=O)([O-])OC1CC[N+](C)(C)CC1 [Perifosine] + COc1ccc(COc2ccc(Cc3cnc(N)nc3N)cc2OC)cc1 [GW2580] (first compound 0.4 µM, partner dose 1 µM)",168,18.9,144,57.7,229,80.7,22.7,97,114,55.5,131,182,233,84.4,66.9,38.5
"O=C(Nc1cc(C(F)(F)F)cc(C(F)(F)F)c1)c1cc(Cl)ccc1O + O=C1NC(=O)/C(=C/c2ccc(-c3ccc(F)cc3O)o2)S1 [AS252424] (first compound 0.016 µM, partner dose 1 µM)",65.7,11.4,121,194,208,210,92.3,95.4,61.7,37.5,75.1,109,133,86.1,39.7,108
"COc1cc([C@@H]2c3cc4c(cc3[C@@H](O[C@@H]3O[C@@H]5CO[C@@H](C)O[C@H]5[C@H](O)[C@H]3O)[C@H]3COC(=O)[C@H]23)OCO4)cc(OC)c1O [etoposide] + COc1cc2ncnc(Nc3ccc(Oc4ccccc4)cc3)c2cc1OC [SrcI1] (first compound 0.02 µM, partner dose 2 µM)",92.2,45.5,155,173,243,82.7,63.5,120,78.5,103,72.4,14.6,68.7,90.8,69.6,63.2
"COc1cc([C@@H]2c3cc4c(cc3[C@@H](O[C@@H]3O[C@@H]5CO[C@@H](C)O[C@H]5[C@H](O)[C@H]3O)[C@H]3COC(=O)[C@H]23)OCO4)cc(OC)c1O [etoposide] + CCCCCCCCCCCC1=C(O)C(=O)C=C(O)C1=O [Embelin] (first compound 0.02 µM, partner dose 1.2 µM)",68,21,147,88.5,80,99.2,89.1,121,93.1,125,77,103,48.2,113,67.3,45.5
"CCCCCCCCCCCCCCCCCCOP(=O)([O-])OC1CC[N+](C)(C)CC1 [Perifosine] + O=C(Nc1ccccc1)c1cc([N+](=O)[O-])ccc1Cl [GW9662] (first compound 0.4 µM, partner dose 2 µM)",70.2,31.7,323,66,75.5,891,93,87.7,82.3,128,121,116,77.7,58.3,70.9,85
"CC[C@]1(O)C[C@H]2CN(CCc3c([nH]c4ccccc34)[C@@](C(=O)OC)(c3cc4c(cc3OC)N(C=O)[C@H]3[C@@](O)(C(=O)OC)[C@H](OC(C)=O)[C@]5(CC)C=CCN6CC[C@]43[C@@H]65)C2)C1 [vincristine] + O=C(O)C(=O)Nc1sc2c(c1C(=O)O)CCNC2 [TCS401] (first compound 0.0001 µM, partner dose 1.66667 µM)",83.6,57.8,415,131,149,114,187,93.5,78,135,81.1,177,158,69.7,45.8,90.6
"Cc1cn(-c2cc(NC(=O)c3ccc(C)c(Nc4nccc(-c5cccnc5)n4)c3)cc(C(F)(F)F)c2)cn1 [nilotinib] + Cn1cc(/C=C2\C(=O)Nc3cccnc32)c2ccccc21 [GW441756] (first compound 0.2 µM, partner dose 0.4 µM)",72,53.4,57,164,49.5,109,45,73.3,64.1,51.8,179,138,50.8,294,81.1,74.8
"O=C(/C=C/c1cccnc1)NCCCCC1CCN(C(=O)c2ccccc2)CC1 + COc1ccc(-c2ccc3c(N4CCOCC4)nc(N4C[C@@H](C)O[C@@H](C)C4)nc3n2)cc1CO [KU0063794] (first compound 0.01 µM, partner dose 0.02 µM)",101,21,98.5,110,4010,122,231,420,216,263,184,2080,223,150,79.8,88.2
"Cc1cc(Nc2cc(N3CCN(C)CC3)nc(Sc3ccc(NC(=O)C4CC4)cc3)n2)n[nH]1 [Tozasertib] + O=S(=O)(c1ccccc1)N(CC(F)(F)F)c1ccc(C(O)(C(F)(F)F)C(F)(F)F)cc1 [T0901317] (first compound 0.006 µM, partner dose 1.4 µM)",167,28.7,76,86.7,105,102,29.1,294,61.8,57.6,117,149,66.6,68.2,48.2,68
"Cc1cc(Nc2cc(N3CCN(C)CC3)nc(Sc3ccc(NC(=O)C4CC4)cc3)n2)n[nH]1 [Tozasertib] + COc1ccc2c(c1)CCC1C2CCC2(C)C(NCCCCCCN3C(=O)C=CC3=O)CCC12 [U73122] (first compound 0.006 µM, partner dose 0.4 µM)",54.2,51.7,168,51.9,110,102,123,233,115,130,114,81.1,136,86.3,140,178
"Cc1ccc(Nc2nccc(N(C)c3ccc4c(C)n(C)nc4c3)n2)cc1S(N)(=O)=O [Pazopanib] + O=S(=O)(c1ccccc1)N(CC(F)(F)F)c1ccc(C(O)(C(F)(F)F)C(F)(F)F)cc1 [T0901317] (first compound 0.4 µM, partner dose 1.4 µM)",84,14.7,48.7,40.5,51.5,114,56.1,178,112,73.1,122,74.1,172,140,62.9,95.5
"N#CC[C@H](C1CCCC1)n1cc(-c2ncnc3[nH]ccc23)cn1 [ruxolitinib] + COc1cc2ncnc(Nc3ccc(Oc4ccccc4)cc3)c2cc1OC [SrcI1] (first compound 1 µM, partner dose 2 µM)",67.2,16.9,98.3,39.7,89.3,95.8,140,88.4,47.4,49.9,60.3,155,49,71.8,35,88.6
"O=C(Nc1cc(C(F)(F)F)cc(C(F)(F)F)c1)c1cc(Cl)ccc1O + COc1cc(N2CCC(N3CCN(C)CC3)CC2)ccc1Nc1ncc(Cl)c(Nc2ccccc2S(=O)(=O)C(C)C)n1 [NVP-TAE684] (first compound 0.016 µM, partner dose 0.08 µM)",229,9.98,90.5,53.5,191,108,63.1,87.9,105,99.9,87.7,76.8,97.3,212,180,89.5
"Cc1cn(-c2cc(NC(=O)c3ccc(C)c(Nc4nccc(-c5cccnc5)n4)c3)cc(C(F)(F)F)c2)cn1 [nilotinib] + COc1ccc(-c2ccc3c(N4CCOCC4)nc(N4C[C@@H](C)O[C@@H](C)C4)nc3n2)cc1CO [KU0063794] (first compound 0.2 µM, partner dose 0.02 µM)",149,19.1,87.2,92.2,57.2,94.6,33.8,108,34.2,86.1,93.3,86.5,120,114,122,84.7
"COc1cc([C@@H]2c3cc4c(cc3[C@@H](O[C@@H]3O[C@@H]5CO[C@@H](C)O[C@H]5[C@H](O)[C@H]3O)[C@H]3COC(=O)[C@H]23)OCO4)cc(OC)c1O [etoposide] + CCN(CC)CCCCNc1ncc2cc(-c3cc(OC)cc(OC)c3)c(NC(=O)NC(C)(C)C)nc2n1 [PD173074] (first compound 0.02 µM, partner dose 0.1 µM)",61.7,22.2,43.6,81.8,178,92.5,47,90.5,94,147,59,112,88.1,88.6,32.5,246
"Cc1ccc(Nc2nccc(N(C)c3ccc4c(C)n(C)nc4c3)n2)cc1S(N)(=O)=O [Pazopanib] + O=c1cc(-c2cccc3c2Sc2ccccc2S3)oc(N2CCOCC2)c1 [KU55933] (first compound 0.4 µM, partner dose 1 µM)",47.8,102,197,159,42.3,120,85.5,98.6,93.7,24.2,46,73.7,118,61.6,110,137
"Cc1cc(Nc2cc(N3CCN(C)CC3)nc(Sc3ccc(NC(=O)C4CC4)cc3)n2)n[nH]1 [Tozasertib] + N#Cc1c(O)c2c(-c3ccc(-c4ccccc4O)cc3)csc2[nH]c1=O [A769662] (first compound 0.006 µM, partner dose 2 µM)",180,46.2,110,184,216,81.8,38.7,71.3,83.4,185,83.9,119,88.8,65.8,80.3,163
"COc1cc([C@@H]2c3cc4c(cc3[C@@H](O[C@@H]3O[C@@H]5CO[C@@H](C)O[C@H]5[C@H](O)[C@H]3O)[C@H]3COC(=O)[C@H]23)OCO4)cc(OC)c1O [etoposide] + Cc1cc([N+](=O)[O-])ccc1NS(=O)(=O)c1cc(Cl)ccc1Cl [FH535] (first compound 0.02 µM, partner dose 1 µM)",192,44.3,119,129,284,154,321,276,98.9,51.7,108,105,49,118,74.3,97.8

# Reformatted as tab-separated lines: entries from further up
Compound	cleaved PARP positive nuclei fraction (501Mel) [%]	cleaved PARP positive nuclei fraction (A101D) [%]	cleaved PARP positive nuclei fraction (A2058) [%]	cleaved PARP positive nuclei fraction (C32) [%]	cleaved PARP positive nuclei fraction (CBRC008) [%]	cleaved PARP positive nuclei fraction (CBRC014) [%]	cleaved PARP positive nuclei fraction (CBRC016) [%]	cleaved PARP positive nuclei fraction (CBRC017) [%]	cleaved PARP positive nuclei fraction (COLO792) [%]	cleaved PARP positive nuclei fraction (COLO800) [%]	cleaved PARP positive nuclei fraction (COLO829) [%]	cleaved PARP positive nuclei fraction (G361) [%]	cleaved PARP positive nuclei fraction (IPC-298) [%]	cleaved PARP positive nuclei fraction (IST-MEL1) [%]	cleaved PARP positive nuclei fraction (LB2518-MEL) [%]	cleaved PARP positive nuclei fraction (LOXIMVI) [%]
COc1cc([C@@H]2c3cc4c(cc3[C@@H](O[C@@H]3O[C@@H]5CO[C@@H](C)O[C@H]5[C@H](O)[C@H]3O)[C@H]3COC(=O)[C@H]23)OCO4)cc(OC)c1O [etoposide] + COc1cc2ncnc(Nc3ccc(Oc4ccccc4)cc3)c2cc1OC [SrcI1] (first compound 0.02 µM, partner dose 2 µM)	92.2	45.5	155	173	243	82.7	63.5	120	78.5	103	72.4	14.6	68.7	90.8	69.6	63.2
COc1cc([C@@H]2c3cc4c(cc3[C@@H](O[C@@H]3O[C@@H]5CO[C@@H](C)O[C@H]5[C@H](O)[C@H]3O)[C@H]3COC(=O)[C@H]23)OCO4)cc(OC)c1O [etoposide] + CCCCCCCCCCCC1=C(O)C(=O)C=C(O)C1=O [Embelin] (first compound 0.02 µM, partner dose 1.2 µM)	68	21	147	88.5	80	99.2	89.1	121	93.1	125	77	103	48.2	113	67.3	45.5
